For at least one entry, the source does not settle the construct or the ends of the probe. For part of these data: Negatives hold for the conditions tested.
test system: RNA polymerase II; assay: SELEX; details: selected with yeast/human RNAP II; purified native protein

Sequence	selection result
GAGCCUUAAACACUGACUUCCCAUUCCCUCUCCCC [yh16]	selected
GCAGCAACUUCAAAAAAAAUUACAAAAAGUGCUUUCUGAACUGAACAAAAAAGAGUAAAGUUAGUCGCGUAAAGUACAUCU [yh39]	selected
GCAGCAUGAAAGUCACAGUUCUAAACAUUCAUUCUGUGCC [yh20]	selected
GCAGCCCACACAUCAUACACACACACCCC [yh17]	selected
GCAGCUUUACUUAACAGUUGAGCUAAUUUACACUCCCAUGGAUAGUGUAUAAGUGUUUCAUUUUCGCCC [yh24]	selected
GCAGCAGACACACGUACACACACACAUACAUAACCUAUC [yh21]	selected
GCAGCCCACAAACCACACCC [yh19]	selected
GCAGCAUGAACCAAACACCUUCCACUAGUCCCAUCC [yh25]	selected
GAGCCAACUACAUCGACCAAUUUACCAGAGGAUUCACCAUUAUGAUCACCAUCUUCC [yh27]	selected
GUACGAGCGGACCCCACAGUUUUAAGCCUAAACUUGGCCUUAUGUAGAAUUUCUUGAUAUCAUUAUCAUCUUUGUCGUAGUCCCAUC [yh5]	selected
CAGAUCAGGUCAGCUCAGGAUAAUUCAAAUUCAGAUAAUGAGGCACAGACUAAUCAUAACACGAAAAUUGUCAUCC [yh40]	selected
GUAGUAAUCGUCUUCAUUCUCAUGGUGUUCAUCGUUCUCUAUGCC [yh42]	selected
AUUGCUUUUCCACACGGAUUCCAACCACUGC [yh12]	selected
AUUGCUUUUCCACACGGAUUCCAACCGAUAUCAUAC [yh13]	selected
GCAGCAGCACUCAUCGGUUCAUCAUCUAUGUAAAGGUGCUUCUCCACCAUGUGC [yh28]	selected
GCAGCAACACACAGCACACACAUACACCCACCGUACUAAGCAUCC [yh26]	selected
CCAUACCAGCAUGAUGGAUACCAAAACCAAAUUGAAGAAUCUCCUUCC [yh11]	selected
AUUGCUUUUCCACACGGAUUCCAACCGCUAUCCAAACACUCAUCCC [yh32]	selected
AAGCACUACCCACCUGACAAUGUCUUCAUCCC [yh14]	selected
AGCAUACAAAAUAUACCUUUCUCAAACAAGAAACAUCCC [yh15]	selected
GCCCACAAGAUUCCACGAUAGAUAUCAAGGAUUUAAAGCUGAUUCAGUGUAUAGUACAUC [yh10]	selected
AUAUCAGCCAUGUACAUCCCUGUCCCCC [yh9]	selected
CACUUUGUACUUUAUUGGAGUUUUCCUCC [yh37]	selected
GCAGCAACACACACACACACACACCC [yh23]	selected
GCAGCACUUAUGGUCCAUAUUAGUGUCUACUACCCUGGUUAUGGAAGGUUAUGAUACCGCACUACUGAACGCACUGUAUGCC [yh43]	selected
GCAGCAACCACACAUCUAUACGGCCUUGAAAACCCCAUCC [yh29]	selected
UUCCCAACGUGUUAGAAUUAUAGGCAUGACCCACUGUGCC [yh4]	selected
GCAAAAUGAGUACUUAGACAUGCUCUGUAUUUGUGCUGUACAGUACGGUAACAC [yh6]	selected
GAGCCUACAAAUUAAAUCUAGCCAGAAGCAUUCUAUCUUCC [yh38]	selected
UCACAUAACAUUCACACAUGCACACAUGUACCACAGCCAUGCCCACAUACCACAGCCACGCAUCAUCC [yh41]	selected

test system: RNA polymerase holoenzyme (core + sigma70) (Escherichia coli); assay: activity in cells; details: GFP transcript vs no RAP; 8-14 fold read-through with rrnB/T7t terminators; protein in cells; protein details: endogenous, tested in E. coli reporter strains; dose not given here

Sequence	functional effect of the aptamer [fold]
GACAACAUGAGAACAGUUCAGCAGCACUA [RAP #5713]	> 2

same assay, conditions: active variant, 3' truncated by 6 nt; protein in cells; protein details: endogenous, tested in E. coli reporter strains; variant of RAP #5713; dose not given here

Sequence	functional effect of the aptamer
GACAACAUGAGAACAGUUCAGCA [5713_mut_0-6]	active

same assay, conditions: active variant; protein in cells; protein details: endogenous, tested in E. coli reporter strains; variant of RAP #5713; dose not given here

Sequence	functional effect of the aptamer
GACGGCAUGAGGGCAGUUCAGCAGCACUA [5713_mut_2gg]	active
GACAACAUGAGGGCGGUUCAGCAGCACUA [5713_mut_loop2]	active
GACGGCAUGAGGGCAGGGCAGCAGCACUA [5713_mut_3gg]	active

same assay, conditions: enhancing, at least 20% increase criterion; protein in cells; protein details: endogenous, tested in E. coli reporter strains; dose not given here

Sequence	functional effect of the aptamer
CAGCAAUCAACCAAUCCCGAAAGCAUACAGACUGGUG [RAP #15488]	active

same assay, conditions: enhancing; protein in cells; protein details: endogenous, tested in E. coli reporter strains; dose not given here

Sequence	functional effect of the aptamer
UGAUGAUCAGCACAUCUUCCAGAGCCAUGUCUUUCA [RAP #11531]	active
CUAAACCAGGGUAGUCCGGCAGAGUAACGGUGACAUCACGAUAGCACCAU [RAP #15418]	active
CUUGGGUUUGUUGAUUACGGAUAUUGAGCUUGUCAU [RAP #14079]	active
CAGCAUGCAGCAGAUCCAGCGUGU [RAP #7866]	active
GAGCACUAACAGUAAAGGAGUCAAUGAUGUCAGGAGAACACGUUUCAUC [RAP #9885]	active
CAGCUAACCCGAUGAUCACCGACUGACC [RAP #1220]	active
GCUAAGACGCAGUGCAAAAGUGGUAUCGGAAUGAUUCGUGUAGCCUUGCA [RAP #607]	active
GGAAUCUGUUGGCGUGGAAUAAUCGGUGAGACGCAUCAUGUUGU [RAP #3600]	active
GUUGCAGUGCGGAUGCUGUGUGAUGGCGCUAUACAAAAAAGUUGUCGAGUGA [RAP #4962]	active
CGACUAUGAUCAGAAUCGGGCCAUGUUAAACACCCUGAAUGUUGGUC [RAP #13404]	active
CAGCCAGGUCACAAUACCCAGCAUCAACAUGUGGCAU [RAP #11884]	active
CAGCAUCACAUGACCGAUCGCCAUCAACAACGCCC [RAP #2464]	active
CACAAAUCACACAGCCCAUCACCC [RAP #14060]	active
AUUGAGUCGAAAUCGGUAUUCACCGGAUUGUACAGAUUGAGCCAUC [RAP #602]	active
AUCAUCAGGCGAUUGAAGUGGGUAUGGUGAACUAUCUGUGG [RAP #5151]	active
CCAGAGUUACCAAUACAGGUGGUACAACCGUAUCCCACAAGGUUAA [RAP #4555]	active
AGCAGGUACAUUGUCCACAGACACUGCCAGAGCCCACUGUGUCC [RAP #10966]	active
AAUGCGUGAUUUCUUGUGCUUUCAGUCCCAGUUUUG [RAP #3439]	active
AGUACACCGGAUCCCAGAACCACCAGCCGCC [RAP #14542]	active
CCAAGGUACCCAAGAAGCGCCCGCAGGAUCAAAAACUGCCAGAUAUUUU [RAP #3828]	active

same assay, conditions: inactive variant; binding itself not measured; protein in cells; protein details: endogenous, tested in E. coli reporter strains; variant of RAP #5713; dose not given here

Sequence	functional effect of the aptamer
GACAACACCCGAACAGUCCCGCAGCACUA [5713_mut_noStruct]	not active
GACAACAACAGAACAGUUGUGCAGCACUA [5713_mut_stem3]	not active

same assay, conditions: inhibiting, Rho-dependent, abolished by bicyclomycin; protein in cells; protein details: endogenous, tested in E. coli reporter strains; dose not given here

Sequence	functional effect of the aptamer
GCGUUUCAAAUGCGCAUCAACCUGCCACACUCCCCCACA [RAP #1086]	active

same assay, conditions: inhibiting; protein in cells; protein details: endogenous, tested in E. coli reporter strains; dose not given here

Sequence	functional effect of the aptamer
ACCAUCAACCACUGACCGACGAUUAGCUUACGCAGUUGCGCUCGCCCUG [RAP #1760]	active
UCAUGACGCAGCUGAUGAUCCACAUUCUUUACCCACACAAAUUCAUGUCCUUU [RAP #5039]	active
CUGUUCCAUGUUAAGCAGAUCCCCUGUCGAACCCGUUCAAAGCACUGCACC [RAP #803]	active
UUCGUUUUCCCAACCUGAAUCUCGACAACUCCGUCCACAUCAC [RAP #9559]	active
CCAGUCGGCAAACAUUCCCAUCCAGACACCAACCA [RAP #6819]	active
UCCAACCCGUAUUCCUCGAAGUAGUGGAUGAAAGCUAUCGUCACAAU [RAP #1510]	active
CAAGCCACCACAUCGCAAAUGUGCCAGGAGCGACCUGUUCUUGUUCAAUUUCU [RAP #15003]	active
ACCUGGUUGACGAAGCUAAACGUCUGCUGACCACCUGCAACAUCCCGGUUCCGUC [RAP #10070]	active
CAGCGCCAUGAGCGUGAUCCACAUACCAAUAAAUUCGUCCCAGACAAUGCUGCCAUGAUCG [RAP #1436]	active
CGGGCAUAUUGCGUGAUUUGUGCCAACCGAUGAUUACUUUCCCCUGC [RAP #4599]	active
UGCCAGAUCAGAACGCAGCAUUUCCUCAACAUCUUCACCAAUGUUCA [RAP #11599]	active
UUAAACGAAUGUCUGCAUAUAUUGUGGCGUAUUCGCUUUGCCCUGCAUCUG [RAP #683]	active
UACAUCAGCCCUGCAAUCAGCAAUCCCGGCAGCAACACUCCCCAGCCA [RAP #15592]	active
CAAUGUCCAUACUUAAUGUCGAGAGGAUCUCCACCAUCUCAAC [RAP #9505]	active
ACAUGAUCACCGCGCUCUAUUCCGCUUCUGCUGAUUCCAUUCCUAUUCUGUG [RAP #1800]	active
CUUCGACAUCCGCUUCGUGGUGGAAAUACCCAUCCAGCAGGCCGACAAGGUUGGUUUUACGUACUGGAUCUUCUUUGC [RAP #10822]	active
UACCACCAAACCAACGUACAGAGCGUACAAGCCAACAUUGCCC [RAP #10243]	active
AACCCUUCUGACGAUCCCAUUGCUGCAUCACAAGCCGUAGUUC [RAP #3930]	active
CAGCGCCAUAAAGCCGAUGAUCAUCCACUCAACGUUGACGUAGUUGCAGAACACCAUCACC [RAP #9533]	active

From US20180073026
